From US20210171576A1, “METHODS FOR TREATING CANCER WITH ACYLDEPSIPEPTIDE ANALOGS” (priority 2018, published 2021)

B1: PRDX2 (protein, UniProt P32119 2-198, looked up)
Peroxiredoxin-2: ASGNARIGKPAPDFKATAVVDGAFKEVKLSDYKGKYVVLFFYPLDFTFVCPTEIIAFSNRAEDFRKLGCEVLGVSVDSQFTHLAWINTPRKEGGLGPLNIPLLADVTRRLSEDYGVLKTDEGIAYRGLFIIDGKGVLRQITVNDLPVGRSVDEALRLVQAFQYTDEHGEVCPAGWKPGSDTIKPNVDDSKEYFSKHN
B2: PRDX4 (protein, UniProt Q13162 38-271, looked up)
Peroxiredoxin-4: WETEERPRTREEECHFYAGGQVYPGEASRVSVADHSLHLSKAKISKPAPYWEGTAVIDGEFKELKLTDYRGKYLVFFFYPLDFTFVCPTEIIAFGDRLEEFRSINTEVVACSVDSQFTHLAWINTPRRQGGLGPIRIPLLSDLTHQISKDYGVYLEDSGHTLRGLFIIDDKGILRQITLNDLPVGRSVDETLRLVQAFQYTDKHGEVCPAGWKPGSETIIPDPAGKLKYFDKLN
B3: PRDX5 (protein, UniProt P30044 53-214, looked up)
Peroxiredoxin-5, mitochondrial: MAPIKVGDAIPAVEVFEGEPGNKVNLAELFKGKKGVLFGVPGAFTPGCSKTHLPGFVEQAEALKAKGVQVVACLSVNDAFVTGEWGRAHKAEGKVRLLADPTGAFGKETDLLLDDSLVSIFGNRRLKRFSMVVQDGIVKALNVEPDGTGLTCSLAPNIISQL
B4: PNPT1 (protein, UniProt Q8TCS8 46-783, looked up)
Polyribonucleotide …: AVAVDLGNRKLEISSGKLARFADGSAVVQSGDTAVMVTAVSKTKPSPSQFMPLVVDYRQKAAAAGRIPTNYLRREIGTSDKEILTSRIIDRSIRPLFPAGYFYDTQVLCNLLAVDGVNEPDVLAINGASVALSLSDIPWNGPVGAVRIGIIDGEYVVNPTRKEMSSSTLNLVVAGAPKSQIVMLEASAENILQQDFCHAIKVGVKYTQQIIQGIQQLVKETGVTKRTPQKLFTPSPEIVKYTHKLAMERLYAVFTDYEHDKVSRDEAVNKIRLDTEEQLKEKFPEADPYEIIESFNVVAKEVFRSIVLNEYKRCDGRDLTSLRNVSCEVDMFKTLHGSALFQRGQTQVLCTVTFDSLESGIKSDQVITAINGIKDKNFMLHYEFPPYATNEIGKVTGLNRRELGHGALAEKALYPVIPRDFPFTIRVTSEVLESNGSSSMASACGGSLALMDSGVPISSAVAGVAIGLVTKTDPEKGEIEDYRLLTDILGIEDYNGDMDFKIAGTNKGITALQADIKLPGIPIKIVMEAIQQASVAKKEILQIMNKTISKPRASRKENGPVVETVQVPLSKRAKFVGPGGYNLKKLQAETGVTISQVDEETFSVFAPTPSAMHEARDFITEICKDDQEQQLEFGAVYTATITEIRDTGVMVKLYPNMTAVLLHNTQLDQRKIKHPTALGLEVGQEIQVKYFGRDPADGRMRLSRKVLQSPATTVVRTLNDRSSIVMGEPISQSSSNSQ
B5: POLDIP2 (protein, UniProt Q9Y2S7 52-368, looked up)
Polymerase delta-interacting …: SSRNRPEGKVLETVGVFEVPKQNGKYETGQLFLHSIFGYRGVVLFPWQARLYDRDVASAAPEKAENPAGHGSKEVKGKTHTYYQVLIDARDCPHISQRSQTEAVTFLANHDDSRALYAIPGLDYVSHEDILPYTSTDQVPIQHELFERFLLYDQTKAPPFVARETLRAWQEKNHPWLELSDVHRETTENIRVTVIPFYMGMREAQNSHVYWWRYCIRLENLDSDVVQLRERHWRIFSLSGTLETVRGRGVVGREPVLSKEQPAFQYSSHVSLQASSGHMWGTFRFERPDGSHFDVRIPPFSLESNKDEKTPPSGLHW
B6: QRSL1 (protein, UniProt Q9H0R6 1-528, looked up)
Glutamyl-tRNA(Gln) …: MLGRSLREVSAALKQGQITPTELCQKCLSLIKKTKFLNAYITVSEEVALKQAEESEKRYKNGQSLGDLDGIPIAVKDNFSTSGIETTCASNMLKGYIPPYNATVVQKLLDQGALLMGKTNLDEFAMGSGSTDGVFGPVKNPWSYSKQYREKRKQNPHSENEDSDWLITGGSSGGSAAAVSAFTCYAALGSDTGGSTRNPAAHCGLVGFKPSYGLVSRHGLIPLVNSMDVPGILTRCVDDAAIVLGALAGPDPRDSTTVHEPINKPFMLPSLADVSKLCIGIPKEYLVPELSSEVQSLWSKAADLFESEGAKVIEVSLPHTSYSIVCYHVLCTSEVASNMARFDGLQYGHRCDIDVSTEAMYAATRREGFNDVVRGRILSGNFFLLKENYENYFVKAQKVRRLIANDFVNAFNSGVDVLLTPTTLSEAVPYLEFIKEDNRTRSAQDDIFTQAVNMAGLPAVSIPVALSNQGLPIGLQFIGRAFCDQQLLTVAKWFEKQVQFPVIQLQELMDDCSAVLENEKLASVSLKQ
B7: PDE12 (protein, UniProt Q6L8Q7 43-609, looked up)
2',5'-phosphodiesterase 12: VPSEPKLSLSFALADGSHKNMQRDQSEPLGRVLSRIATNALKGHAKAAAAKKSRKSRPNASGGAACSGPGPEPAVFCEPVVKLYYREEAVAEDVLNVDAWQDGAVLQIGDVKYKVERNPPAFTELQLPRYIMAGFPVCPKLSLEFGDPASSLFRWYKEAKPGAAEPEVGVPSSLSPSSPSSSWTETDVEERVYTPSNADIGLRLKLHCTPGDGQRFGHSRELESVCVVEAGPGTCTFDHRHLYTKKVTEDALIRTVSYNILADTYAQTEFSRTVLYPYCAPYALELDYRQNLIQKELTGYNADVICLQEVDRAVFSDSLVPALEAFGLEGVFRIKQHEGLATFYRKSKFSLLSQHDISFYEALESDPLHKELLEKLVLYPSAQEKVLQRSSVLQVSVLQSTKDSSKRICVANTHLYWHPKGGYIRLIQMAVALAHIRHVSCDLYPGIPVIFCGDFNSTPSTGMYHFVINGSIPEDHEDWASNGEEERCNMSLTHFFKLKSACGEPAYTNYVGGFHGCLDYIFIDLNALEVEQVIPLPSHEEVTTHQALPSVSHPSDHIALVCDLKWK
B8: PMPCB (protein, UniProt O75439 44-489, looked up)
Mitochondrial-processing …: STQAATQVVLNVPETRVTCLESGLRVASEDSGLSTCTVGLWIDAGSRYENEKNNGTAHFLEHMAFKGTKKRSQLDLELEIENMGAHLNAYTSREQTVYYAKAFSKDLPRAVEILADIIQNSTLGEAEIERERGVILREMQEVETNLQEVVFDYLHATAYQNTALGRTILGPTENIKSISRKDLVDYITTHYKGPRIVLAAAGGVSHDELLDLAKFHFGDSLCTHKGEIPALPPCKFTGSEIRVRDDKMPLAHLAIAVEAVGWAHPDTICLMVANTLIGNWDRSFGGGMNLSSKLAQLTCHGNLCHSFQSFNTSYTDTGLWGLYMVCESSTVADMLHVVQKEWMRLCTSVTESEVARARNLLKTNMLLQLDGSTPICEDIGRQMLCYNRRIPIPELEARIDAVNAETIREVCTKYIYNRSPAIAAVGPIKQLPDFKQIRSNMCWLRD
B9: PYCR2 (protein, UniProt Q96C36 2-320, looked up)
Pyrroline-5-carboxylate …: SVGFIGAGQLAYALARGFTAAGILSAHKIIASSPEMNLPTVSALRKMGVNLTRSNKETVKHSDVLFLAVKPHIIPFILDEIGADVQARHIVVSCAAGVTISSVEKKLMAFQPAPKVIRCMTNTPVVVQEGATVYATGTHALVEDGQLLEQLMSSVGFCTEVEEDLIDAVTGLSGSGPAYAFMALDALADGGVKMGLPRRLAIQLGAQALLGAAKMLLDSEQHPCQLKDNVCSPGGATIHALHFLESGGFRSLLINAVEASCIRTRELQSMADQEKISPAALKKTLLDRVKLESPTVSTLTPSSPGKLLTRSLALGGKKD
B10: PMPCA (protein, UniProt Q10713 34-525, looked up)
Mitochondrial-processing …: SSGGAYPNIPLSSPLPGVPKPVFATVDGQEKFETKVTTLDNGLRVASQNKFGQFCTVGILINSGSRYEAKYLSGIAHFLEKLAFSSTARFDSKDEILLTLEKHGGICDCQTSRDTTMYAVSADSKGLDTVVALLADVVLQPRLTDEEVEMTRMAVQFELEDLNLRPDPEPLLTEMIHEAAYRENTVGLHRFCPTENVAKINREVLHSYLRNYYTPDRMVLAGVGVEHEHLVDCARKYLLGVQPAWGSAEAVDIDRSVAQYTGGIAKLERDMSNVSLGPTPIPELTHIMVGLESCSFLEEDFIPFAVLNMMMGGGGSFSAGGPGKGMFSRLYLNVLNRHHWMYNATSYHHSYEDTGLLCIHASADPRQVREMVEIITKEFILMGGTVDTVELERAKTQLTSMLMMNLESRPVIFEDVGRQVLATRSRKLPHELCTLIRNVKPEDVKRVASKMLRGKPAVAALGDLTDLPTYEHIQTALSSKDGRLPRTYRLFR
B11: PGAM5 (protein, UniProt Q96HS1 1-289, looked up)
Serine/threonine-protein …: MAFRQALQLAACGLAGGSAAVLFSAVAVGKPRAGGDAEPRPAEPPAWAGGARPGPGVWDPNWDRREPLSLINVRKRNVESGEEELASKLDHYKAKATRHIFLIRHSQYHVDGSLEKDRTLTPLGREQAELTGLRLASLGLKFNKIVHSSMTRAIETTDIISRHLPGVCKVSTDLLREGAPIEPDPPVSHWKPEAVQYYEDGARIEAAFRNYIHRADARQEEDSYEIFICHANVIRYIVCRALQFPPEGWLRLSLNNGSITHLVIRPNGRVALRTLGDTGFMPPDKITRS
B12: PHB (protein, UniProt P35232 2-272, looked up)
Prohibitin 1: AAKVFESIGKFGLALAVAGGVVNSALYNVDAGHRAVIFDRFRGVQDIVVGEGTHFLIPWVQKPIIFDCRSRPRNVPVITGSKDLQNVNITLRILFRPVASQLPRIFTSIGEDYDERVLPSITTEILKSVVARFDAGELITQRELVSRQVSDDLTERAATFGLILDDVSLTHLTFGKEFTEAVEAKQVAQQEAERARFVVEKAEQQKKAAIISAEGDSKAAELIANSLATAGDGLIELRKLEAAEDIAYQLSRSRNITYLPAGQSVLLQLPQ
B13: PITRM1 (protein, UniProt Q5JRX3 29-1037, looked up)
Presequence protease, …: NSNRACERALQYKLGDKIHGFTVNQVTSVPELFLTAVKLTHDDTGARYLHLAREDTNNLFSVQFRTTPMDSTGVPHILEHTVLCGSQKYPCRDPFFKMLNRSLSTFMNAFTASDYTLYPFSTQNPKDFQNLLSVYLDATFFPCLRELDFWQEGWRLEHENPSDPQTPLVFKGVVFNEMKGAFTDNERIFSQHLQNRLLPDHTYSVVSGGDPLCIPELTWEQLKQFHATHYHPSNARFFTYGNFPLEQHLKQIHEEALSKFQKIEPSTVVPAQTPWDKPREFQITCGPDSFATDPSKQTTISVSFLLPDITDTFEAFTLSLLSSLLTSGPNSPFYKALIESGLGTDFSPDVGYNGYTREAYFSVGLQGIAEKDIETVRSLIDRTIDEVVEKGFEDDRIEALLHKIEIQMKHQSTSFGLMLTSYIASCWNHDGDPVELLKLGNQLAKFRQCLQENPKFLQEKVKQYFKNNQHKLTLSMRPDDKYHEKQAQVEATKLKQKVEALSPGDRQQIYEKGLELRSQQSKPQDASCLPALKVSDIEPTIPVTELDVVLTAGDIPVQYCAQPTNGMVYFRAFSSLNTLPEELRPYVPLFCSVLTKLGCGLLDYREQAQQIELKTGGMSASPHVLPDDSHMDTYEQGVLFSSLCLDRNLPDMMQLWSEIFNNPCFEEEEHFKVLVKMTAQELANGIPDSGHLYASIRAGRTLTPAGDLQETFSGMDQVRLMKRIAEMTDIKPILRKLPRIKKHLLNGDNMRCSVNATPQQMPQTEKAVEDFLRSIGRSKKERRPVRPHTVEKPVPSSSGGDAHVPHGSQVIRKLVMEPTFKPWQMKTHFLMPFPVNYVGECIRTVPYTDPDHASLKILARLMTAKFLHTEIREKGGAYGGGAKLSHNGIFTLYSYRDPNTIETLQSFGKAVDWAKSGKFTQQDIDEAKLSVFSTVDAPVAPSDKGMDHFLYGLSDEMKQAHREQLFAVSHDKLLAVSDRYLGTGKSTHGLAILGPENPKIAKDPSWIIQ

Tested on: mitochondrial proteins of HEK293 T-REx cells
Experiment: Mitochondrial proteome profiling for WT and CLPP^−/− (fold change CLPP^−/−/WT)
Design: species or system human
Details: MaxQuant total peptide ion intensity
[1] = fold change of mitochondrial protein detected in CLPP knockout compared to WT HEK293 T-REx cells

Molecule	Avg. fold change (CLPP KO/WT) [1]	Avg. fold change (CLPP KO/WT) ([…])
B1	−9.17	–
B2	−2.49	–
B3	2.38	–
B4	−1.56	–
B5	4.89	–
B6	−2.45	–
B7	−3.68	–
B8	2.47	–
B9	–	−2.75
B10	−2.71	–
B11	−1.97	–
B12	1.54	–
B13	1.55	–
